No constants are given. Whether binding was seen depends on the method and setting. In cells and extracts the contact can be indirect. A yes stands for co-enrichment or nearness to the bait. Other partners may have been found. Sequences can lack the tags named with a protein. One block for each molecule: values may come before it.
Molecular target: T1, Flag-tagged Shc1 (UniProt P29353)
T1 sequence: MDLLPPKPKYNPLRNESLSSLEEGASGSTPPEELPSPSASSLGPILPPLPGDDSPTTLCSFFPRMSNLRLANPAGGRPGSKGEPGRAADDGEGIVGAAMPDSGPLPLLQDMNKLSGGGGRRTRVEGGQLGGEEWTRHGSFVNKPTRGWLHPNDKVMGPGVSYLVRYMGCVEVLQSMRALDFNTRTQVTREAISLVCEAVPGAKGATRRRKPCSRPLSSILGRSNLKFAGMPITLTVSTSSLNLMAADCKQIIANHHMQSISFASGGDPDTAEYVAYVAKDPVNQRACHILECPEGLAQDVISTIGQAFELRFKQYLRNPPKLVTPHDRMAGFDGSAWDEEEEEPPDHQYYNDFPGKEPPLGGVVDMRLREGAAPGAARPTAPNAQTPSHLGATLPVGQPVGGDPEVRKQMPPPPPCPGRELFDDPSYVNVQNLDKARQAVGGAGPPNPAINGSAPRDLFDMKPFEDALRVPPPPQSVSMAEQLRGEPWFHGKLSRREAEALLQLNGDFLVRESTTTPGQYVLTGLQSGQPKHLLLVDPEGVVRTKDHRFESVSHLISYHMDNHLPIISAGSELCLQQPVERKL
Assay: affinity purification with mass spectrometry; Flag-Shc1 immunoprecipitated on anti-Flag M2 agarose from SNU-216 stable cells following EGF stimulation; lysis buffer 50 mM Tris-HCl pH 7.4, 150 mM NaCl, 1 mM EDTA, 0.2% TritonX-100; LC-MS/MS

Protein sequences, listed by entry. Tags and fused reporters are not part of them. Residues count along the entry.
UniProt P29317, residues 24-976: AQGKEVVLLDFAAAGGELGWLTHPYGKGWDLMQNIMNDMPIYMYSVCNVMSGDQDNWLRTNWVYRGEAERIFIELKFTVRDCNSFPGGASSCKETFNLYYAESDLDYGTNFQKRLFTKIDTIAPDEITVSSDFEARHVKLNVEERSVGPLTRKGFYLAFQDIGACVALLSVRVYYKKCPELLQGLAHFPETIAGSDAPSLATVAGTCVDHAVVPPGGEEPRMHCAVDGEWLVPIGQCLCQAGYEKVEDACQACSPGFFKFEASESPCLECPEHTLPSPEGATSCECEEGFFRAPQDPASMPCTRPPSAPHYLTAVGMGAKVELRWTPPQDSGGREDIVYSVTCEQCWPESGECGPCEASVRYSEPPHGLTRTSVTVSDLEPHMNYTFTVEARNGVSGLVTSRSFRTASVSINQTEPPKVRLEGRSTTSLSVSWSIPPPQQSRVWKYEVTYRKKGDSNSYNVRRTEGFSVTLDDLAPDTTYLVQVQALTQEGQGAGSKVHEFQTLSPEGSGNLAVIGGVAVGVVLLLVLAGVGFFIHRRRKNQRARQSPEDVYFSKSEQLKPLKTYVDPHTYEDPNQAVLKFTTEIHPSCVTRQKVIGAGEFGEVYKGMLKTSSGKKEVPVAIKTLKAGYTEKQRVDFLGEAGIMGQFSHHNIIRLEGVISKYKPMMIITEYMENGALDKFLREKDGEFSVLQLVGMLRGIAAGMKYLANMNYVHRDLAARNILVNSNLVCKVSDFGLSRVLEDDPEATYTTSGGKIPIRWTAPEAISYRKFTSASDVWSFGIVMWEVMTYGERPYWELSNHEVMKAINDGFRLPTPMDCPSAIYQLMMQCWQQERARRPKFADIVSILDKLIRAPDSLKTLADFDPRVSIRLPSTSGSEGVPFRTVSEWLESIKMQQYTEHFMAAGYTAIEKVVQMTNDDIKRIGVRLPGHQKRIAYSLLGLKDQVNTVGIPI
UniProt P21860, residues 20-1342: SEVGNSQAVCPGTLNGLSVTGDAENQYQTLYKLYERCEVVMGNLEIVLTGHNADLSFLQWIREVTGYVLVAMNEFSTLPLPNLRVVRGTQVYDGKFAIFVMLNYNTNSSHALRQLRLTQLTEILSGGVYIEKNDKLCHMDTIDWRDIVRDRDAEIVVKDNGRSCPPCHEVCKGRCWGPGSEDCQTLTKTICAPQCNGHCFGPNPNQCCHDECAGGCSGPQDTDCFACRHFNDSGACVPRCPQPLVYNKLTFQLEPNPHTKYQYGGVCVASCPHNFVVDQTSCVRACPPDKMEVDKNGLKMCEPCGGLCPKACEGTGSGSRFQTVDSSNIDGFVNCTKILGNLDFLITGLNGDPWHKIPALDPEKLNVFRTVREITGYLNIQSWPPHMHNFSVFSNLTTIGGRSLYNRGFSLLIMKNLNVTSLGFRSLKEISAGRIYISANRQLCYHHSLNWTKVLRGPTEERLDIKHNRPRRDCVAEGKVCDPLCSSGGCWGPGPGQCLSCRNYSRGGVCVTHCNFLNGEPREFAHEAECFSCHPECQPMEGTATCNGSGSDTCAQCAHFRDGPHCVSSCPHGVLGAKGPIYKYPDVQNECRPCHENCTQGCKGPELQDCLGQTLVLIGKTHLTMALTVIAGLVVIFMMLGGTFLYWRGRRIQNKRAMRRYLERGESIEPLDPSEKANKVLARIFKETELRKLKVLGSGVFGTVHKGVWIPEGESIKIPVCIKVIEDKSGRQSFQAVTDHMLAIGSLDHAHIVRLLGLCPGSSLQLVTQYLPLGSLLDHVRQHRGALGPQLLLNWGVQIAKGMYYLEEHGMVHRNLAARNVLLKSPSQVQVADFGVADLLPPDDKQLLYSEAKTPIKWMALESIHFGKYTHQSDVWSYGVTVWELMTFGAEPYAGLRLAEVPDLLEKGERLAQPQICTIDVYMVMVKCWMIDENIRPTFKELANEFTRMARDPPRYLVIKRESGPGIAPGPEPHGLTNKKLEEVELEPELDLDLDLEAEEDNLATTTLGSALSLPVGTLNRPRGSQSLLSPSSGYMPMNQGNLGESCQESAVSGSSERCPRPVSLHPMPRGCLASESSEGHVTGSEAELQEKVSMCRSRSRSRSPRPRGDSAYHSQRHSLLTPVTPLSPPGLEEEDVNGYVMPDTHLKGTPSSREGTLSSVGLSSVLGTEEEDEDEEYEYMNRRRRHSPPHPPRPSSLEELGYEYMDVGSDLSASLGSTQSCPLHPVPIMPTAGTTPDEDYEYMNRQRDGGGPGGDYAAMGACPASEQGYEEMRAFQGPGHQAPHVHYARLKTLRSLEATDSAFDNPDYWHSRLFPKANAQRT

Molecule: EPHA2 (from UniProt P29317 24-976) (receptor)
binding: binds

Molecule: HER3 (from UniProt P21860 20-1342) (receptor)
binding: binds

B1: RASAL2 (protein, UniProt Q9UJF2 1-1139)
chain: MQTPEVPAERSPRRRSISGTSTSEKPNSMDTANTSPFKVPGFFSKRLKGSIKRTKSQSKLDRNTSFRLPSLRSTDDRSRGLPKLKESRSHESLLSPCSTVECLDLGRGEPVSVKPLHSSILGQDFCFEVTYLSGSKCFSCNSASERDKWMENLRRTVQPNKDNCRRAENVLRLWIIEAKDLAPKKKYFCELCLDDTLFARTTSKTKADNIFWGEHFEFFSLPPLHSITVHIYKDVEKKKKKDKNNYVGLVNIPTASVTGRQFVEKWYPVSTPTPNKGKTGGPSIRIKSRFQTITILPMEQYKEFAEFVTSNYTMLCSVLEPVISVRNKEELACALVHILQSTGRAKDFLTDLVMSEVDRCGEHDVLIFRENTIATKSIEEYLKLVGQQYLHDALGEFIKALYESDENCEVDPSKCSSSELIDHQSNLKMCCELAFCKIINSYCVFPRELKEVFASWKQQCLNRGKQDISERLISASLFLRFLCPAIMSPSLFNLMQEYPDDRTSRTLTLIAKVIQNLANFAKFGNKEEYMAFMNDFLEHEWGGMKRFLLEISNPDTISNTPGFDGYIDLGRELSVLHSLLWEVVSQLDKGENSFLQATVAKLGPLPRVLADITKSLTNPTPIQQQLRRFTEHNSSPNVSGSLSSGLQKIFEDPTDSDLHKLKSPSQDNTDSYFRGKTLLLVQQASSQSMTYSEKDERESSLPNGRSVSLMDLQDTHAAQVEHASVMLDVPIRLTGSQLSITQVASIKQLRETQSTPQSAPQVRRPLHPALNQPGGLQPLSFQNPVYHLNNPIPAMPKASIDSSLENLSTASSRSQSNSEDFKLSGPSNSSMEDFTKRSTQSEDFSRRHTVPDRHIPLALPRQNSTGQAQIRKVDQGGLGARAKAPPSLPHSASLRSTGSMSVVSAALVAEPVQNGSRSRQQSSSSRESPVPKVRAIQRQQTQQVQSPVDSATMSPVERTAAWVLNNGQYEEDVEETEQNLDEAKHAEKYEQEITKLKERLRVSSRRLEEYERRLLVQEQQMQKLLLEYKARLEDSEERLRRQQEEKDSQMKSIISRLMAVEEELKKDHAEMQAVIDAKQKIIDAQEKRIVSLDSANTRLMSALTQVKERYSMQVRNGISPTNPTKLSITENGEFKNSSC
binding: binds

B3: JUP (protein, UniProt P14923 1-745)
chain: MEVMNLMEQPIKVTEWQQTYTYDSGIHSGANTCVPSVSSKGIMEEDEACGRQYTLKKTTTYTQGVPPSQGDLEYQMSTTARAKRVREAMCPGVSGEDSSLLLATQVEGQATNLQRLAEPSQLLKSAIVHLINYQDDAELATRALPELTKLLNDEDPVVVTKAAMIVNQLSKKEASRRALMGSPQLVAAVVRTMQNTSDLDTARCTTSILHNLSHHREGLLAIFKSGGIPALVRMLSSPVESVLFYAITTLHNLLLYQEGAKMAVRLADGLQKMVPLLNKNNPKFLAITTDCLQLLAYGNQESKLIILANGGPQALVQIMRNYSYEKLLWTTSRVLKVLSVCPSNKPAIVEAGGMQALGKHLTSNSPRLVQNCLWTLRNLSDVATKQEGLESVLKILVNQLSVDDVNVLTCATGTLSNLTCNNSKNKTLVTQNSGVEALIHAILRAGDKDDITEPAVCALRHLTSRHPEAEMAQNSVRLNYGIPAIVKLLNQPNQWPLVKATIGLIRNLALCPANHAPLQEAAVIPRLVQLLVKAHQDAQRHVAAGTQQPYTDGVRMEEIVEGCTGALHILARDPMNRMEIFRLNTIPLFVQLLYSSVENIQRVAAGVLCELAQDKEAADAIDAEGASAPLMELLHSRNEGTATYAAAVLFRISEDKNPDYRKRVSVELTNSLFKHDPAAWEAAQSMIPINEPYGDDMDATYRPMYSSDVPLDPLEMHMDMDGDYPIDTYSDGLRPPYPTADHMLA
binding: binds

Other lines, results leading:

binding: binds
Molecule: Human epidermal growth factor receptor 2 (HER2) (from UniProt P04626 23-1255)

binding: binds
B2: SHCBP1 (endogenous, SNU-216) (protein, UniProt Q8NEM2 1-672)
chain: MADGSLTGGGLEAAAMAPERMGWAVEQELASLEKGLFQDEDSCSDCSYRDKPGSSLQSFMPEGKTFFPEIFQTNQLLFYERFRAYQDYILADCKASEVQEFTAEFLEKVLEPSGWRAVWHTNVFKVLVEITDVDFAALKAVVRLAEPYLCDSQVSTFTMECMKELLDLKEHRLPLQELWVVFDDSGVFDQTALAIEHVRFFYQNIWRSWDEEEEDEYDYFVRCVEPRLRLHYDILEDRVPSGLIVDYHNLLSQCEESYRKFLNLRSSLSNCNSDSEQENISMVEGLKLYSEMEQLKQKLKLIENPLLRYVFGYQKNSNIQAKGVRSSGQKITHVVSSTMMAGLLRSLLTDRLCQEPGEEEREIQFHSDPLSAINACFEGDTVIVCPGHYVVHGTFSIADSIELEGYGLPDDIVIEKRGKGDTFVDCTGADIKISGIKFVQHDAVEGILIVHRGKTTLENCVLQCETTGVTVRTSAEFLMKNSDLYGAKGAGIEIYPGSQCTLSDNGIHHCKEGILIKDFLDEHYDIPKISMVNNIIHNNEGYGVVLVKPTIFSDLQENAEDGTEENKALKIQTSGEPDVAERVDLEELIECATGKMELCARTDPSEQVEGNCEIVNELIAASTQKGQIKKKRLSELGITQADDNLMSQEMFVGIVGNQFKWNGKGSFGTFLF
